Experimental data reported in article PMC5435946.
No constants are given. Whether binding was seen depends on the method and setting. Some results given as binding are weak or reduced against the parent protein; the word gives no strength.

B1: Thp1 (protein, UniProt Q08231 1-455)
chain: MDMANQLLDELAHGNFSHLTLNLSQNGREIAILQKQLTGFDDKQLETFVEQHPAMPNDTRFKIMCTSFLNYARDVDPWSAWSSSDLIFEFYQCLINCLINDNAPHIEMLIPVATRETEFIINLAGKLDSFHLQLHTRSHQFLSHISSILSRLFNSIKPPRGNASSTNIPGKQRILLYLVNKLNNIYFRIESPQLCSNIFKNFQPKSMLAHFNEYQLDQQIEYRYLLGRYYLLNSQVHNAFVQFNEAFQSLLNLPLTNQAITRNGTRILNYMIPTGLILGKMVKWGPLRPFLSQETIDNWSVLYKHVRYGNIQGVSLWLRQNERHLCARQLLIVLLEKLPMVTYRNLIKTVIKSWTTEWGQNKLPYSLIERVLQLSIGPTFEDPGAQEITIYNGIHSPKNVENVLVTLINLGLLRANCFPQLQLCVVKKTTMIQEIVPPVNERITKMFPAHSHVLW
B2: Sem1 (protein, UniProt O94742 1-89)
chain: MSTDVAAAQAQSKIDLTKKKNEEINKKSLEEDDEFEDFPIDTWANGETIKSNAVTQTNIWEENWDDVEVDDDFTNELKAELDRYKRENQ

Columns and labels:
[1] = biological target: T1, Sac3 (residues 60–550) (S. cerevisiae) (UniProt P46674); assay: crystal structure; co-expressed and co-purified Sac3^60-550:Thp1:Sem1 complex at 16.5 mg/ml; sitting drop vapour diffusion, 20% PEG 3350, 0.2 M Mg formate, 100 mM MES 6.5; 2.3 Å, molecular replacement with PDB 3T5V; both purified
T1 sequence: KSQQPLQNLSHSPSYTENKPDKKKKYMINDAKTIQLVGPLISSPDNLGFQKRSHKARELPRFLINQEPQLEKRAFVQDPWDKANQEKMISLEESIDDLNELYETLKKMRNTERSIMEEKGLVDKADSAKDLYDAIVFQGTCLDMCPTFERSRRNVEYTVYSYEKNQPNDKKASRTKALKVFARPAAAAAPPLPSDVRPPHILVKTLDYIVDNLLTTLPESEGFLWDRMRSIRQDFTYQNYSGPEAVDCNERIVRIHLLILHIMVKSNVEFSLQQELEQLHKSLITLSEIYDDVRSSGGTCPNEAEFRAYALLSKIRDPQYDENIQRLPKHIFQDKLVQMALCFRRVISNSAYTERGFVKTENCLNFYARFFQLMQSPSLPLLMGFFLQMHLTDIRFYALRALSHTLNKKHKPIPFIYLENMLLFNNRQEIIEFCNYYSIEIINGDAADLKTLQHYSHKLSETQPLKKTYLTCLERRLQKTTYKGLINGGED

[2] = biological target: T2, Thp1 (S. cerevisiae) (UniProt Q08231); assay: as above
T2 sequence: B1 chain

Binder | binding [1] | binding [2]
B1 | binds | –
B2 | – | binds
